No constants are given. Whether binding was seen depends on the method and setting. In cells and extracts the contact can be indirect. These calls come from enrichment with a bait or labelling near it, and not all partners need be listed. For part of these data: Tags and fused reporters may be left off the sequences shown.
T1: CFP-1::GFP (C. elegans) (UniProt Q9XUE7)
T1 sequence: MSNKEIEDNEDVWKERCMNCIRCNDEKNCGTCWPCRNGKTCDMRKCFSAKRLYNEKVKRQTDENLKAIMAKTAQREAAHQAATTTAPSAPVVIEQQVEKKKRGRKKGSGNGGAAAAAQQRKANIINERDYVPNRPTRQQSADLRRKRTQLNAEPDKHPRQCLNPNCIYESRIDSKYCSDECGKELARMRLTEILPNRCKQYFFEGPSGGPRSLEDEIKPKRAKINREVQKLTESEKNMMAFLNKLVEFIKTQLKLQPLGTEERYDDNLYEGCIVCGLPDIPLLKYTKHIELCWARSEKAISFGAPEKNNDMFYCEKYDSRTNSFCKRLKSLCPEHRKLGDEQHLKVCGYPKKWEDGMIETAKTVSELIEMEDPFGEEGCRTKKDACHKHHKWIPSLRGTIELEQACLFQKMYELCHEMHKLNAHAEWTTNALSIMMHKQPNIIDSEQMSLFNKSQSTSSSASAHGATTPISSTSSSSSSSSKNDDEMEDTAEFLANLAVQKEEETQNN

Amino acid sequences for entries named in this document (tags omitted).
UniProt Q17963: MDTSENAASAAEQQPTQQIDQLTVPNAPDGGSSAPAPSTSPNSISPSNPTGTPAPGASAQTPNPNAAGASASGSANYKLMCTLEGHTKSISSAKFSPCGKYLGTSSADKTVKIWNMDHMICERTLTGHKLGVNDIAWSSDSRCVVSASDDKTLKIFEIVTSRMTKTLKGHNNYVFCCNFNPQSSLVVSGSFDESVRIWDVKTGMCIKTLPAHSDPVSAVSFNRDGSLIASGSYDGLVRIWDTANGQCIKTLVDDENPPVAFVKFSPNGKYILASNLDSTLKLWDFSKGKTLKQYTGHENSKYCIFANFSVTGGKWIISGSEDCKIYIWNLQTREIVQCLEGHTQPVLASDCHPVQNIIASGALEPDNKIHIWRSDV


Assays:
CFP-1::GFP (C. elegans) = biological target: T1, CFP-1::GFP (C. elegans); test: affinity purification with mass spectrometry
HA::WDR-5.1 (C. elegans) = HA::WDR-5.1 (C. elegans) (UniProt Q17963); test: affinity purification with mass spectrometry

binding (CFP-1::GFP (C. elegans))	binding (HA::WDR-5.1 (C. elegans))	Binder
binds	binds	MRG-1 (protein, UniProt A7DTF0 1-337) MSSKKNFEVGENVACIYKGKPYDAKITDIKTNSDGKELYCVHFKGWNNRYDEKIPVGEEKDRIFKGTASEYAEKHNAELPTTALKPKKKSLAAEAPRDDRDDTPGTSKGKKAKSVTIAPVMTADDMKVELPKPLRKILIDDYDLVCRYFINIVPHEYSVDQIIEDYIKTIPVSNEQMRTVDDLLIEYEEADIKITNLALICTARGLVDYFNVTLGSSYQLLYKFERPQYNDLVKKRAMEKGIDITNPTALQDSGFRPSQEYGIVHFLRMLAKLPDYLKLTQWNDHVINRIMIGVHDLIVFLNKNHGKYYRGSSDYQGASNDYYRRSLAADDGVGANQ
binds	binds	ASH-2 (protein, UniProt G5EFZ3 1-570) MRSSKGGRGRQAAPKTAPTTVCYCDGKRELGSVEVVCSTCLKWFHGRCLKEFHELNSNGVPFMICYTFTCKQCRPTAEDWKAKKADLVQMCVTVLATLSAERLKADGKLSAEHVPEDFTYLSLKDEIVPYMNENWYMLTAIKQKKEWHQNLAPTLLKEKNIFVQHNDDDDLFALAEKNLSLLGPLHEAVKLIGKRPIERENREPRHIELPPIEGPKTRGASKRRHAEAPVTGKKQKLAADYSSTAAPNGVQIDIPFSKDNYRYYLTEVDPNVPEDPAWNQNQSSAYVIPSFHYRELLNPTVNVSSNDRAFQLSINGNSITGFEGYSMARASHGVSKGTWYFEVNFDDQPDDSHIRIGWSQSYASLQACVGYNKFSYGWRSKHGTKFHEAKGKKYHFGGFKQGDVLGCLIHLPVDKKLQIPANLPSEKYLPVSHKGFNLISFKANYFFEVQEESADIAKTLVEMPGSYIEFFHNGKSCGKAYENIYAGAYYPSISIFKSATATMNLGPKFRNLPRGATGIHARADEQQHEQTLSDMLYLVSKEVNLDHPPRVKREDDDDVKDIKKEIKQEI
binds	binds	HCF-1 (protein, UniProt G5EC23 1-782) MDEDVGLEATNYSRGDESRSEEQEKNVVRWRIVQQSTGPNPKPRHGHRAVVLKELIVIFGGGNEGMIDELHAYNTQKREWTAPQCCGDVPTPAAAFGAISLGNKIYRFGGMTEYGKYTNDLYELQSTRWEWRRLNPRVHSNGHLPCPRIGHSFVVSQKSQKAYVFGGLSNDLNDPKRNVPHYLDDLYVINLSGPQHLIWEKLNATGPGPISRESHTAVIYEKDSISRMVVYGGMNGVRLGDLWYLNLNTLHWTEIKFDDPRTGIPPMPRSLHSSVLIGDKMFVYGGWVPLLEHASTEQQTEKEWKCTSSLGCWNITEDRWVPLHLYCSDEDTIPRGRAGHCAAAVGDRMYIWSGRDGYRKAWSNQVCCRDMWLLDTILPEQPGKVQLGRAGFNSLEISWPIVQGASGYFLQIGFGDAKEQSVSPIKRATTSPRKQPSIVPPSQKETEQSPKKPQGTAPSIISTQGTTYTAPADPKPATDEGGLPQDLFEDTEKNETASPKRSNDAQSADSSTCEQKKTDESGLEEDSEKDQKPSDAGETDEMKEENGDDDLPWFDVGIIDKATINVTHYFNDRQQSLEKQLNDLIDHNAFKCVNDSVFTTEDKIPLINGQSYRFRVSAINGLGKGAWSETASCKTCVPGYPSAPSSIRITKSHEGAQLTWEPPSNTNISGKIIEYSVYLAVKNQSANSADSQLAFMRVYCGPQADCQVLQSNLGTAFVDQTNKPAIIFRIAARNEKGYGPATQVRWLQDQQKIPVRTNYPNNSGFIYQQHGGQQKRARFDHQ
